Values of other authors as cited in patent publication US20130109655A1, “Method for mitigating of Prostaglandin E2 reducing side effects of non-steroidal anti-inflammatory drugs” (priority 2011, published 2013).

Key:
[1] = tested on: radioimmunoassayed prostaglandin E (R-PGE); details: naproxen before nicotinic acid infusion; cited from earlier work
[2] = tested on: radioimmunoassayed prostaglandin E (R-PGE); details: naproxen with nicotinic acid; cited from earlier work

Structure (SMILES): COc1ccc2cc([C@H](C)C(=O)O)ccc2c1 [naproxen]
- effect on the increase in plasma R-PGE following nicotinic acid [1]: totally abolished
- effect on the increase in forearm release of R-PGE induced by nicotinic acid [2]: completely blocks
